Results: publication PMC8506602
These are yes or no findings as the source states them, for the method shown. In cells and extracts the contact can be indirect. Some entries that bind do so weakly or less than the wild type.

Amino acid sequences for entries named in this document (tags omitted). A change or cut given only in a name is not applied to a line headed by its entry.
UniProt P30559: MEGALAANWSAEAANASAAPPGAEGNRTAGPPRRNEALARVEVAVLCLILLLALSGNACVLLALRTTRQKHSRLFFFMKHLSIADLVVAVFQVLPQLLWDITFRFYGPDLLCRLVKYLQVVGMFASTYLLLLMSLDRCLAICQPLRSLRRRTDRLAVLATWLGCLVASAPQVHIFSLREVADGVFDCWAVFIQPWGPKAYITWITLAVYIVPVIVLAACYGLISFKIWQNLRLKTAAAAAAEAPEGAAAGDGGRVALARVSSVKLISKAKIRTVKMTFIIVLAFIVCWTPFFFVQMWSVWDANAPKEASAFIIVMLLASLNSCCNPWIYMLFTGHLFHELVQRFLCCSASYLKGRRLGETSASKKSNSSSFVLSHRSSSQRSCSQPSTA
UniProt P49407: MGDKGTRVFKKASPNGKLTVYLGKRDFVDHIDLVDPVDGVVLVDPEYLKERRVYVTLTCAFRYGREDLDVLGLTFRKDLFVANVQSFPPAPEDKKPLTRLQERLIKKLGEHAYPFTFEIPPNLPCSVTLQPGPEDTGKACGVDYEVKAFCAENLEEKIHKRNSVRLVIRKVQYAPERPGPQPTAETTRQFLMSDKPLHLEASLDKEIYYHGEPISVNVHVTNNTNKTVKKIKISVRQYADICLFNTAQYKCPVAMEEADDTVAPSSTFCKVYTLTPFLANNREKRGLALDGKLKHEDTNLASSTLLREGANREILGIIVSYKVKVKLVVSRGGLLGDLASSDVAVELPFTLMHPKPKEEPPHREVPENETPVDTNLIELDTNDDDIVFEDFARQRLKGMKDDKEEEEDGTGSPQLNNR

Tests used:
Assay in all cases: FRET or BRET; living HEK293T cells co-transfected with WT or variant OXTR-GFP10 and β-arrestin-1-Rluc8 or β-arrestin-2-Rluc8 (15:1 w/w); oxytocin dose-response; 10 μM coelenterazine 400a in HBSS with 20 mM HEPES; BRET ratio 520 nm/400 nm averaged over 78-182 s; normalised to WT at the highest oxytocin concentration
E339K OXTR-GFP10 (human) = E339K OXTR-GFP10 (human) (UniProt P30559)
L206V OXTR-GFP10 (human) = L206V OXTR-GFP10 (human) (UniProt P30559)
P108A OXTR-GFP10 (human) = P108A OXTR-GFP10 (human) (UniProt P30559)
R376G OXTR-GFP10 (human) = R376G OXTR-GFP10 (human) (UniProt P30559)
V281M OXTR-GFP10 (human) = V281M OXTR-GFP10 (human) (UniProt P30559)
V45L OXTR-GFP10 (human) = V45L OXTR-GFP10 (human) (UniProt P30559)
[1] = target: wild-type (WT) OXTR-GFP10 fusion (oxytocin receptor) (human) (UniProt P30559)

Row | binding (E339K OXTR-GFP10 (human)) | binding (L206V OXTR-GFP10 (human)) | binding (P108A OXTR-GFP10 (human)) | binding (R376G OXTR-GFP10 (human)) | binding (V281M OXTR-GFP10 (human)) | binding (V45L OXTR-GFP10 (human)) | binding [1] | Substance
1 | binds | binds | binds | binds | binds | binds | binds | β-arrestin-1-Rluc8 fusion (from UniProt P49407 1-418)
2 | binds | binds | binds | binds | binds | binds | binds | β-arrestin-2-Rluc8 fusion (from UniProt P32121 1-409)
